According to patent US11975005B2, “Treatment of respiratory diseases” (TIANLI BIOTECH PTY LTD, priority 2015, dated 2024):
For at least one compound, name, drawing or mass did not settle the structure.

Experiments:
HDM allergen = assay: House dust mite (HDM) allergen challenge in mice; type: in vivo
Method: (§1) The conduct of the house dust mite allergy model with RSV complication was conducted as described herein and using the approaches described in Fuchs and Braun 2008 (Curr Drug Targets. 2008 June; 9(6):495-502).

RSV [1] = assay: HDM allergen challenge with RSV infection in mice; type: in vivo
Method: as §1

bleomycin-treated mice = test system: bleomycin-treated mice
From the text: Bleomycin is commonly used in mice to model pulmonary fibrosis. This anti-cancer agent is known to induce pulmonary fibrosis in a subset of patients. […] Eventually the intensity of the fibrosis declines but never fully resolves. Early treatment in the model (during the first 3 days) may influence the outcome via anti-inflammatory effects (Limjunyawong et al. (2014) Physiol Rep. 2(2): e00249). Delayed treatment is used to specifically examine impact on the fibrogenic process.

CK1δ/ε = assay: siRNA against CK1δ / CK1ε: action of TGFβ on GC responses; type: cell-based
RSV [2] = assay: RSV infection in Balb/C mice, PF670462 on days 3, 4 and 5; type: in vivo
RSV [3] = assay: 5 day model of RSV infection, treatments from day 1; type: in vivo, mice
[4] = Mock-treated mice, PF670462 ip, RT-qPCR
[5] = female Balb/C mice inoculated with RSV, Dex 1 mg/kg (i.p.)/day from day 1, PF670462 30 mg/kg days 3, 4 and 5

With CCCC1O[C@@H]2C[C@H]3[C@@H]4CCC5=CC(=O)C=C[C@]5(C)[C@H]4[C@@H](O)C[C@]3(C)[C@]2(C(=O)CO)O1 (stereo partly shown) [Bud, budesonide] the “increase in the BAL protein level” value (HDM allergen; HDM allergen 25 μg/35 μL daily intranasal, aerosol PF670462 3 mg/ml, Budesonide 0.5 mg/ml) was “regulated”, the “Lymphocyte numbers in BAL” value (HDM allergen; HDM allergen challenged mice, aerosol treatments) was “reduced” and the BAL cell number (RSV [1]; HDM allergen challenged mice infected with 2 million RSV virions 3 days prior to post mortem) was “not significantly reduced”. The RSV titre (RSV [1]; mice challenged with HDM and then infected with RSV) was “significantly increased”.

C[C@@H]1C[C@H]2[C@@H]3CCC4=CC(=O)C=C[C@]4(C)[C@@]3(F)[C@@H](O)C[C@]2(C)[C@@]1(O)C(=O)CO [Dex, dexamethasone] was tested, and the “BAL cells (increase by bleomycin)” value (bleomycin-treated mice; 3-day bleomycin, male mice) was “but not in PF670462- or Dex-treated mice”, the “Col1A expression increased by bleomycin, lung tissue” value (bleomycin-treated mice; 3-day bleomycin, male mice) was “but not by Dex” and the “Col3 expression increased by bleomycin, lung tissue” value (bleomycin-treated mice; 3-day bleomycin, male mice) was “but not by Dex”. For the same compound, the “IL-6 increases in response to bleomycin, lung tissue” value (bleomycin-treated mice; 3-day bleomycin, male mice) was “reduced”, the “TIMP1 expression increased by bleomycin, lung tissue” value (bleomycin-treated mice; 3-day bleomycin, male mice) was “but not by Dex” and the “fibrogenesis / efficacy in the bleomycin model” value (bleomycin-treated mice; 4 independent studies, 3 to 21 days, male and female mice, PF670462 30 mg/kg/day, ip) was “lack of efficacy”. The “Heme oxygenase-1 (HO-1) expression” value (CK1δ/ε) was “down regulated”, the “expression of CXCL5” value (RSV [2]; FIG. 8B, during RSV infection) was “profound reduction” and the “expression of KC” value (RSV [2]; FIG. 8B, during RSV infection) was “profound reduction”. The “expression of TNFα” value (RSV [2]; FIG. 8B, during RSV infection) was “neither compound alone had an effect”, the “IFN expression (IFNα, IFNβ and IFNγ)” value (RSV [2]; FIG. 8C, RSV treated mice, bronchoalveolar lavage cells and lung tissue, PF670462 given with Dex) was “reduction” and the “expression of GILZ in lung tissue” value (RSV [2]; [4]) was “as does Dex”. For the same compound, the “expression of MKP1 in lung tissue” value (RSV [2]; [4]) was “neither Dex nor PF670462 alone increased expression”, the “expression of ZBTB16 in lung tissue” value (RSV [2]; [4]) was “as does Dex” and the “bronchoalveolar lavage fluid (BALF) cellular content” value (RSV [2]; [5]) was “little effect”. For the same compound, the “bronchoalveolar lavage fluid (BALF) protein content” value (RSV [2]; [5]) was “little effect”, the “accumulation of inflammatory cells in the BAL fluid” value (RSV [3]; administered from day 1) was “reduced” and the “TNFα expression levels in BAL cells” value (RSV [3]; agent alone) was “directly suppresses”.
